Results are given in words; binding and its absence hold for the method and conditions named.

Chains of the proteins cited; added tags and fusions are not shown. Lines headed by an entry give the natural chain unless they say otherwise; changes in a name come on top. Residues count along the entry.
UniProt Q14247, residues 492-550: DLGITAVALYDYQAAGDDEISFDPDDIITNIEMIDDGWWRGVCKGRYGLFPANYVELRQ
UniProt Q53T59: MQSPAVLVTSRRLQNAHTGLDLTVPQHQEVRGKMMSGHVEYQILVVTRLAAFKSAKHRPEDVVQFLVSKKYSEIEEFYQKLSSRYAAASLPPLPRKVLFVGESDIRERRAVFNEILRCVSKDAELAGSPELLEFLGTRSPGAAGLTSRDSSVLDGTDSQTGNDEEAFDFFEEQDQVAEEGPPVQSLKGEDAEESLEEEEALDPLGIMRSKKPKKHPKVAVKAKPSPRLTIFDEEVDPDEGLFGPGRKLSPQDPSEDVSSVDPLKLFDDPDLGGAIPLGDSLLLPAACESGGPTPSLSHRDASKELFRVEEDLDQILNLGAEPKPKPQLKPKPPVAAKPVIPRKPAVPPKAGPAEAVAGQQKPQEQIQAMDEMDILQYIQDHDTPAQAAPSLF

The experiment addresses GST-SH3 (SH3 domain of cortactin fused to GST) (UniProt Q14247). The experiment can be described thus: pull-down.

Take “MBP-HS1BP3 full length, PRR3.2 mutant (prolines of PRR3.2 replaced with alanine) (from UniProt Q53T59)”: the binding entry was “no binding”. For the substance “MBP-HS1BP3 full length, PRR3.1 mutant (prolines of PRR3.1 replaced with alanine) (from UniProt Q53T59)”, the binding entry is “no binding”.
